# Source: PubChem BioAssay AID1347075 (National Center for Advancing Translational Sciences (NCATS), 2019)
# In all, about 400,000 compounds went through this assay and about 5,500 (1.4%) were called active. The shares of active, inactive and inconclusive entries below differ from those in the screen. Calls come from the whole dose curve; as a rule, active = well fitted cell-killing curve with a large enough effect; inconclusive = small, poorly fitted or top-dose-only effect, or effect the other way; inactive = flat fitted curve, though single readings scatter. Where the call is inconclusive, the potency comes from a doubtful curve fit.
# Assay: qHTS assay for MDR1-selective chemotherapeutics: Primary screen using the parental adenocarcinoma cell KB-3-1; note: nearly all actives have a fitted effect of over 60% in size
# Details: KB-3-1 viability, CellTiter-Glo ATP luminescence, 72 h; activity change, negative = cytotoxic: at 46.1 µM (top of the series)
# In short: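 Cytotoxicity measured as CellTiter-Glo luminescence after 72 h at 37 C. Compound titrations were pinned onto drug-naive KB-3-1 parental adenocarcinoma cells grown in DMEM with 10% FBS, and normalized data fitted to concentration-response curves.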
# % is set by controls: 0 for no effect and ±100 for the full control effect; potency is the fitted concentration of half-maximal effect.
SMILES,Potency,"activity change, negative = cytotoxic"
O=C(NCc1ccc2c(c1)OCO2)c1nc(S(=O)(=O)Cc2ccccc2)ncc1Cl,active: 20.6 µM,
COc1ccc(/C=C/C(=O)N(C)CC(=O)Nc2cccc(F)c2)cc1S(=O)(=O)N1CCCCC1,active: 20.6 µM,
Cc1ccc(NC(=O)c2ccc(Cl)cc2[N+](=O)[O-])nc1,active: 5.8 µM,
O=C1N/C(=C/c2ccc(N3CCOCC3)o2)C(=O)N1c1cccc(Cl)c1,"inconclusive: 29.1 µM [cytotoxic, single point]",
Cc1ccc(CNCc2c(C(=O)O)n(Cc3ccccc3C)c3cc(C)ccc23)cc1,"inconclusive: 18.4 µM [cytotoxic, partial curve]",
Cc1cc(C)cc(-n2ncc3c2CCCC3NC(=O)CCN2CCCC2=O)c1 (stereo not drawn),"inconclusive: 29.1 µM [rising, single point]",
CCc1ccccc1NC(=O)CN1CCN(CC(=O)Nc2ccc3c(c2)OC2(CCCCC2)O3)CC1,"inconclusive: 32.6 µM [cytotoxic, single point]",
CCOC(=O)c1c(NC(=O)Cc2ccccc2)sc2c1CCN(CC)C2,,inactive: -3.52%
Nc1nonc1-c1nc2ccccc2n1CC(=O)N/N=C\c1ccc(-c2ccc(Cl)cc2)o1,"inconclusive: 29.1 µM [cytotoxic, single point]",
c1cncc(CN2CCN(c3cc(-c4cnc5ccccc5c4)nc4ccnn34)CC2)c1,,inactive: 0%
O=C(CC(=O)c1ccccc1)Nc1ccc2c(c1)OCCO2,,inactive: -3.64%
Cc1sc2ncnc(N3CCN(Cc4ccccc4)CC3)c2c1-c1ccc(F)cc1,"inconclusive: 29.1 µM [cytotoxic, single point]",
COc1ccc(CCNC(=O)CCc2c(C)c3cc4c(C)coc4cc3oc2=O)cc1,,inactive: -4.96%
CC(=O)c1ccc2noc(-c3ccc(C)cc3)c2c1,,inactive: -19.2%
CNc1c(Cl)cc(C=O)cc1Cl,"inconclusive: 1.03 µM [rising, partial curve]",
O=C(Nc1ccc(S(=O)(=O)N2CCCCC2)cc1)c1ccc(CN2CCOCC2)cc1,active: 7.31 µM,
CCCOc1ccc(-c2cc(C(F)(F)F)c(C#N)c(SCC(=O)O)n2)cc1,,inactive: 2.14%
Cc1cc(Cl)c(S(=O)(=O)N2CCSCC2)cc1OCC(=O)NC1CCCCC1,"inconclusive: 5.8 µM [cytotoxic, partial curve]",
COc1ccc(C(=O)CN2CCN(S(=O)(=O)c3cccc([N+](=O)[O-])c3)CC2)cc1,,inactive: 0.605%
CCc1ccc(OCC(=O)Nc2ccc(-c3cc4ccccc4oc3=O)c(OC)c2)cc1,"inconclusive: 14.6 µM [cytotoxic, partial curve]",
Cc1ccc(C)c(N2CCN(C(=O)c3cc4sccc4n3C)CC2)c1,"inconclusive: 23.1 µM [cytotoxic, single point]",
O=C(CSc1nnc(COc2ccccc2Cl)o1)NC(=O)NCc1ccco1,,inactive: -1.97%
N#CC(C#N)=Cc1cc2ccccc2nc1N1CCOCC1,"inconclusive: 13 µM [cytotoxic, partial curve]",
CCN(CC)C(=O)C1=C(C)N(Cc2ccc(F)cc2)C(=O)C(CC(=O)NC(c2ccccc2)c2ccccc2)C1 (stereo not drawn),"inconclusive: 29.1 µM [cytotoxic, single point]",
CCCCn1[nH]c(-c2ccccc2)cc1=O,,inactive: -1.02%

# Quoted at random: 3 records from the list.
SMILES,Potency,"activity change, negative = cytotoxic"
O=C(NCc1ccc2c(c1)OCO2)c1nc(S(=O)(=O)Cc2ccccc2)ncc1Cl,active: 20.6 µM,
CC(=O)c1ccc2noc(-c3ccc(C)cc3)c2c1,,inactive: -19.2%
CCCCn1[nH]c(-c2ccccc2)cc1=O,,inactive: -1.02%

# Molecules above containing an aryl thioether with sulfur outside any ring, in the order listed:
SMILES,Potency,"activity change, negative = cytotoxic"
CCCOc1ccc(-c2cc(C(F)(F)F)c(C#N)c(SCC(=O)O)n2)cc1,,inactive: 2.14%
O=C(CSc1nnc(COc2ccccc2Cl)o1)NC(=O)NCc1ccco1,,inactive: -1.97%

# Going on with the list.

SMILES,Potency,"activity change, negative = cytotoxic"
CCN(CC)c1ccc(O)c(C=Nc2ccc(C)c(C)c2)c1,"inconclusive: 23.1 µM [rising, single point]",
O=C(O)c1ccc(N2C(=O)c3[nH]nc(-c4ccccc4)c3C2c2cccc(F)c2)cc1 (stereo not drawn),,inactive: 22.7%
CCc1nc2ccccc2c(=O)n1NC(=O)c1c(O)c2ccccc2n(CC)c1=O,"inconclusive: 29.1 µM [cytotoxic, single point]",
COc1ccc(NS(=O)(=O)c2ccc(N3CCOCC3)c(NC(=O)c3ccccc3Cl)c2)cc1,active: 16.4 µM,
O=C(O)C1(P(=O)(c2ccc(Cl)cc2)c2ccc(Cl)cc2)CCCC1,"inconclusive: 0.0052 µM [cytotoxic, full curve, poor fit]",
COc1cccc(/C=N/NC(=O)CSc2ccccc2C)c1OC,,inactive: 23.1%
CC(=O)Nc1ccc(NS(=O)(=O)c2ccccc2)cc1,"inconclusive: 23.1 µM [rising, single point]",
CCN(CC)S(=O)(=O)c1cccc(NC(=O)C2SC(=Nc3ccc(C)cc3C)C(C(=O)NC(C)COC)=C2N)c1 (stereo not drawn),"inconclusive: 23.1 µM [cytotoxic, single point]",
c1ccc2oc(C3=NNC(=NC4CC4)SC3)cc2c1,active: 9.2 µM,
Cc1ccc(O)c(C(=O)c2cnn(C(=O)Cc3csc(C)n3)c2)c1,"inconclusive: 29.1 µM [cytotoxic, single point]",
Cc1ccc(Cn2c(C3CCCN3c3nc(-c4cc(Cl)c(N)c(Cl)c4)cs3)nc3cc(Cl)c(Cl)cc32)cc1 (stereo not drawn),"inconclusive: 2.91 µM [rising, full curve, poor fit]",
Cc1ccc2[nH]c(=O)c(CN(CCCN3CCOCC3)C(=O)NC3CCCCC3)cc2c1,"inconclusive: 14.6 µM [rising, single point]",
COc1ccc(/C=C/C(=O)c2ccc3c(c2)OCO3)cc1OC,,inactive: -14.7%
Cc1nnc2sc(-c3csc4c3CCCC4)nn12,active: 8.2 µM,
N#C/C(=C(/O)c1cccc(F)c1)c1nc2ccccc2s1,active: 5.8 µM,
CCCCn1c(N)c(N(CC(C)C)C(=O)c2cccc(S(=O)(=O)N(CC)c3ccccc3)c2)c(=O)[nH]c1=O,,inactive: 1.28%
CCCCOc1ccc(CC(=O)N(C)O)cc1,"inconclusive: 20.6 µM [cytotoxic, single point]",
Cc1nc2cc(-c3ccc(Cl)cc3)nn2c(C)c1CCC(=O)NCc1ccco1,"inconclusive: 2.31 µM [cytotoxic, partial curve, poor fit]",
COc1ccccc1N1CCN(C(=O)c2c(C)cc(=O)oc2C)CC1,,inactive: 10.7%
COc1ccc(C2C3=C(N=C4SCC(=O)N42)c2ccccc2CC3)cc1 (stereo not drawn),"inconclusive: 29.1 µM [cytotoxic, single point]",
Cc1cc(C)nc(Nc2ncc(O)n2-c2ccc(C)c(Cl)c2)n1,,inactive: 11.3%
CCCN1C(=O)C(O)(C2CC(=O)CC(C)(C)O2)c2ccccc21 (stereo not drawn),"inconclusive: 29.1 µM [cytotoxic, single point]",
CNC(=O)CSc1nc2cccnc2n1-c1ccc(F)cc1,"inconclusive: 0.146 µM [rising, full curve]",
COc1ccc([C@H]2CC(=O)C=C(c3cccc(C#N)c3)C2)cc1,,inactive: 4.18%
O=C(NC(c1ccc(Cl)cc1)c1ccsc1)C1CCN(Cc2cccc(Cl)c2)CC1 (stereo not drawn),"inconclusive: 29.1 µM [cytotoxic, single point]",

SMILES,Potency,"activity change, negative = cytotoxic"
O=C(NC(=S)Nc1cccc2c(O)cccc12)c1ccccc1[N+](=O)[O-],"inconclusive: 32.6 µM [cytotoxic, single point]",
C/C(=N\N=C(/N)SC1CC(=O)N(c2ccc(Cl)cc2)C1=O)c1cccs1 (stereo not drawn),,inactive: 0%
COC(=O)Nc1nn(-c2ccc(OC)cc2)c(=O)c(C#N)c1C,"inconclusive: 10.3 µM [rising, partial curve, poor fit]",
CC(C)(C)NC(=O)Nc1nnc(-c2ccncc2)s1,"inconclusive: 29.1 µM [rising, single point]",
Cn1c(=O)c2c(=O)cc(N)[nH]c2n(C)c1=O,,inactive: 19.9%
CC(C)CC(=O)NC(=S)Nc1ccc(NC(=O)c2ccco2)cc1,"inconclusive: 25.9 µM [rising, single point]",
COc1cc(-c2cn(S(=O)(=O)c3cccc4nsnc34)nc2N)cc(OC)c1OC,"inconclusive: 0.461 µM [cytotoxic, full curve]",
Cc1ccc(OCCn2c(=O)cnc3ccccc32)cc1,"inconclusive: 18.4 µM [cytotoxic, single point]",
COc1ccc(N(CC(=O)Nc2ccc3c(c2)OCCO3)S(=O)(=O)c2cccc(C)c2)cc1,,inactive: -0.889%
Cc1cc(=O)n2c(n1)NC(=NCc1ccccc1)NC2c1ccccc1 (stereo not drawn),"inconclusive: 8.2 µM [rising, partial curve]",
CC(C)C[C@H]1CN=C(Nc2ccccc2)N1CC1CCC1,"inconclusive: 16.4 µM [rising, partial curve, poor fit]",
O=C(N/N=C\c1cccnc1)c1ccc(Br)s1,"inconclusive: 25.9 µM [rising, single point]",
CCCc1nc(SCC(=O)N2CCC(C)CC2)c2c(=O)n(C)c(=O)n(C)c2n1,"inconclusive: 0.146 µM [cytotoxic, full curve]",
CC(=O)c1ccc(-c2cnc3c(NC=O)cc(-c4ccc(N5CCN(C)CC5)cc4)cn23)cc1,,inactive: -3.4%
CC(C)Nc1nc(NCc2ccccc2)c2sccc2n1,"inconclusive: 20.6 µM [cytotoxic, single point]",
COc1ccccc1-c1c(C)nn2c(N3CCN(Cc4ccccc4)CC3)cc(C)nc12,"inconclusive: 29.1 µM [cytotoxic, single point]",
Cc1ccc(C2C3=C(CC(C)(C)CC3=O)NC3=C2C(=O)c2ccccc23)cc1 (stereo not drawn),"inconclusive: 29.1 µM [cytotoxic, single point]",
COCCNC(=O)c1cc(C)ccc1C,,inactive: 2.58%
CC(Oc1ccccc1)C(=O)OCC(=O)N1CC(=O)Nc2ccccc21 (stereo not drawn),,inactive: -1.4%
COc1ccc(CCn2c(C(C)C)nc3c(c(=O)c4ccccc4n3C)c2=O)cc1,"inconclusive: 29.1 µM [cytotoxic, single point]",
Cc1nn(CC(=O)NCC(C)c2ccccc2)c(=O)c2cc3ccccc3n12 (stereo not drawn),,inactive: 18.5%
COc1ccc(CCn2c(SCCN3CCCCC3)nc3ccccc3c2=O)cc1OC,,inactive: -3.03%
CC(C)Cn1c(N)c(C(=O)CSc2nc3ncc(Cl)cc3[nH]2)c(=O)n(C)c1=O,"inconclusive: 0.651 µM [rising, full curve, poor fit]",
